Data: article PMC5500890
No constants are given. Whether binding was seen depends on the method and setting.

Target: Escherichia coli apolipoprotein N-acyl transferase (Lnt) (E. coli K-12) (UniProt P23930)
Assay: crystal structure; apo Ec-Lnt crystallized in the presence of 0.3% (w/v) NTM, hanging drop, 16 °C; refined at 2.6 Å; both purified

binding: no binding
Substance: Escherichia coli apolipoprotein N-acyl transferase (Lnt) (from UniProt P23930 1-512) (enzyme)
